Data published in patent US20250084044A1, “PROTOPORPHYRINOGEN OXIDASE INHIBITORS” (Enko Chem, Inc., priority 2022, published 2025).
Some entries share one result that the patent states for a list of compounds.

target: T1, mutant ΔG210-AmPPO (Amaranthus tuberculatus, UniProt Q0NZW9, DEL211-211, form not given); assay type: biochemical, Amaranthus tuberculantum; conditions: Example 17b; read-out: IC50 in the AG210 PPO in vitro assay
T1 sequence (Q0NZW9 with tags, fused parts or gaps DEL211-211): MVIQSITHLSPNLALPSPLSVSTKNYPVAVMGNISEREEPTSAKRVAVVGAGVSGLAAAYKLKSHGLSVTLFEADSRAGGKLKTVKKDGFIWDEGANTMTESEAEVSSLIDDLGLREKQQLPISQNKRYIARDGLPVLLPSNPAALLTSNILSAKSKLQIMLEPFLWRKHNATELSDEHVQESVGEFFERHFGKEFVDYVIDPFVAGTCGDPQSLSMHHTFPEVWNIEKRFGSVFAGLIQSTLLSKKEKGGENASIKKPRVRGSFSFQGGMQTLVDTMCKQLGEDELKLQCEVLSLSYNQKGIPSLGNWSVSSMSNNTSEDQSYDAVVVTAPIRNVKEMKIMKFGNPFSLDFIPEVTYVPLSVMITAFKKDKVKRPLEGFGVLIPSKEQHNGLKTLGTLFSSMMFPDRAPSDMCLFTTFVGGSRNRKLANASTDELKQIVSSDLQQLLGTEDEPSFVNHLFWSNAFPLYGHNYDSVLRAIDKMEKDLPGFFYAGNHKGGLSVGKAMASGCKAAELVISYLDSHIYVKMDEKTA

Compound | IC50 [nM]
C[C@@H](C(=O)N(C)CCC(=O)O)N1C(=O)C(F)(F)Oc2cc(F)c(-c3c(F)c(F)c(F)c(F)c3F)cc21 [Compound 134, (S)-3-(N-methyl-2-(2,2,7-trifluoro-3-oxo-6-(perfluorophenyl)-2,3-dihydro-4H-benzo[b][1,4]oxazin-4-yl)propanamido)propanoic acid] | < 100
C[C@H](C(=O)N(C)CCC(=O)O)N1C(=O)C(F)(F)Oc2cc(F)c(-c3c(F)c(F)c(F)c(F)c3F)cc21 [Compound 135, (R)-3-(N-methyl-2-(2,2,7-trifluoro-3-oxo-6-(perfluorophenyl)-2,3-dihydro-4H-benzo[b][1,4]oxazin-4-yl)propanamido)propanoic acid] | < 100
COC(=O)C[C@H]1C[C@H](CN2C(=O)C(F)(F)Oc3cc(F)c(-c4c(F)c(F)c(F)c(F)c4F)cc32)C1 [Compound 136, methyl 2-((1r,3r)-3-((2,2,7-trifluoro-3-oxo-6-(perfluorophenyl)-2,3-dihydro-4H-benzo[b][1,4]oxazin-4-yl)methyl)cyclobutyl)acetate] | < 100
COC(=O)C[C@H]1C[C@@H](CN2C(=O)C(F)(F)Oc3cc(F)c(-c4c(F)c(F)c(F)c(F)c4F)cc32)C1 [Compound 137, methyl 2-((1s,3s)-3-((2,2,7-trifluoro-3-oxo-6-(perfluorophenyl)-2,3-dihydro-4H-benzo[b][1,4]oxazin-4-yl)methyl)cyclobutyl)acetate] | < 100
O=C(O)C[C@H]1C[C@H](CN2C(=O)C(F)(F)Oc3cc(F)c(-c4c(F)c(F)c(F)c(F)c4F)cc32)C1 [Compound 138, 2-((1 r,3r)-3-((2,2,7-trifluoro-3-oxo-6-(perfluorophenyl)-2,3-dihydro-4H-benzo[b][1,4]oxazin-4-yl)methyl)cyclobutyl)acetic acid] | < 100
O=C(O)C[C@H]1C[C@@H](CN2C(=O)C(F)(F)Oc3cc(F)c(-c4c(F)c(F)c(F)c(F)c4F)cc32)C1 [Compound 139, 2-((1s,3s)-3-((2,2,7-trifluoro-3-oxo-6-(perfluorophenyl)-2,3-dihydro-4H-benzo[b][1,4]oxazin-4-yl)methyl)cyclobutyl)acetic acid] | < 100
COC(=O)C(C)(C)CCN1C(=O)C(F)(F)Oc2cc(F)c(-c3c(F)c(F)c(F)c(F)c3F)cc21 [Compound 140, methyl 2,2-dimethyl-4-(2,2,7-trifluoro-3-oxo-6-(perfluorophenyl)-2,3-dihydro-4H-benzo[b][1,4]oxazin-4-yl)butanoate] | < 100
CC(C)(CCN1C(=O)C(F)(F)Oc2cc(F)c(-c3c(F)c(F)c(F)c(F)c3F)cc21)C(=O)O [Compound 141, 2,2-dimethyl-4-(2,2,7-trifluoro-3-oxo-6-(perfluorophenyl)-2,3-dihydro-4H-benzo[b][1,4]oxazin-4-yl)butanoic acid] | < 100
COC(=O)c1cccc(CCN2C(=O)C(F)(F)Oc3cc(F)c(-c4c(F)c(F)c(F)c(F)c4F)cc32)c1 [Compound 142, methyl 3-(2-(2,2,7-trifluoro-3-oxo-6-(perfluorophenyl)-2,3-dihydro-4H-benzo[b][1,4]oxazin-4-yl)ethyl)benzoate] | < 100
O=C(O)c1cccc(CCN2C(=O)C(F)(F)Oc3cc(F)c(-c4c(F)c(F)c(F)c(F)c4F)cc32)c1 [Compound 143, 3-(2-(2,2,7-trifluoro-3-oxo-6-(perfluorophenyl)-2,3-dihydro-4H-benzo[b][1,4]oxazin-4-yl)ethyl)benzoic acid] | < 100
CC(=O)OCC(=O)CN1C(=O)C(F)(F)Oc2cc(F)c(-c3c(F)c(F)c(F)c(F)c3F)cc21 [Compound 144, 2-oxo-3-(2,2,7-trifluoro-3-oxo-6-perfluorophenyl)-2,3-dihydro-4H-benzo[b][1,4]oxazin-4-yl)propyl acetate] | < 100
COC(=O)[C@@H]1CNCCN1C(=O)CN1C(=O)C(F)(F)Oc2cc(F)c(-c3c(F)c(F)c(F)c(F)c3F)cc21 [Compound 145, methyl (S)-1-(2-(2,2,7-trifluoro-3-oxo-6-(perfluorophenyl)-2,3-dihydro-4H-benzo[b][1,4]oxazin-4-yl)acetyl)piperazine-2-carboxylate] | < 100
COC(=O)[C@@H]1CN(C(C)=O)CCN1C(=O)CN1C(=O)C(F)(F)Oc2cc(F)c(-c3c(F)c(F)c(F)c(F)c3F)cc21 [Compound 146, methyl (0.5)-4-acetyl-1-(2-(2,2,7-trifluoro-3-oxo-6-(perfluorophenyl)-2,3-dihydro-4H-benzo[b][1,4]oxazin-4-yl)acetyl)piperazine-2-carboxylate] | < 100
CC(=O)N1CCN(C(=O)CN2C(=O)C(F)(F)Oc3cc(F)c(-c4c(F)c(F)c(F)c(F)c4F)cc32)[C@H](C(=O)O)C1 [Compound 147, (S)-4-acetyl-1-(2-(2,2,7-trifluoro-3-oxo-6-(perfluorophenyl)-2,3-dihydro-4H-benzo[b][1,4]oxazin-4-yl)acetyl)piperazine-2-carboxylic acid] | < 1000
O=C(O)[C@@H]1CNCCN1C(=O)CN1C(=O)C(F)(F)Oc2cc(F)c(-c3c(F)c(F)c(F)c(F)c3F)cc21 [Compound 148, (0.5)-1-(2-(2,2,7-trifluoro-3-oxo-6-(perfuorophenyl)-2,3-dihydro-4H-benzo[b][1,4]oxazin-4-yl)acetyl)piperazine-2-carboxylic acid] | < 1000
O=C(O)C(O)CN1C(=O)C(F)(F)Oc2cc(F)c(-c3c(F)c(F)c(F)c(F)c3F)cc21 (stereo not drawn) [Compound 149, 2-hydroxy-3-(2,2,7-trifluoro-3-oxo-6-(perfluorophenyl)-2,3-dihydro-4H-benzo[b][1,4]oxazin-4-yl)propanoic acid] | < 1000
CC(C)[C@@H](C(=O)O)N1C(=O)C(F)(F)Oc2cc(F)c(-c3c(F)c(F)c(F)c(F)c3F)cc21 [Compound 150, (S)-3-methyl-2-(2,2,7-trifluoro-3-oxo-6-(perfluorophenyl)-2,3-dihydro-4H-benzo[b][1,4]oxazin-4-yl)butanoic acid] | < 1000
CC(C)[C@H](C(=O)O)N1C(=O)C(F)(F)Oc2cc(F)c(-c3c(F)c(F)c(F)c(F)c3F)cc21 [Compound 151, (R)-3-methyl-2-(2,2,7-trifluoro-3-oxo-6-(perfluorophenyl)-2,3-dihydro-4H-benzo[b][1,4]oxazin-4-yl)butanoic acid] | < 1000
COC(=O)[C@H](C(C)C)N1C(=O)C(F)(F)Oc2cc(F)c(-c3c(F)c(F)c(F)c(F)c3F)cc21 [Compound 152, methyl (S)-3-methyl-2-(2,2,7-trifluoro-3-oxo-6-(perfluorophenyl)-2,3-dihydro-4H-benzo[b][1,4]oxazin-4-yl)butanoate] | < 100
COC(=O)[C@@H](C(C)C)N1C(=O)C(F)(F)Oc2cc(F)c(-c3c(F)c(F)c(F)c(F)c3F)cc21 [Compound 153, methyl (R)-3-methyl-2-(2,2,7-trifluoro-3-oxo-6-(perfluorophenyl)-2,3-dihydro-4H-benzo[b][1,4]oxazin-4-yl)butanoate] | < 100
COC(=O)CN1C(=O)C(F)(F)Oc2cc(F)c(-c3c(F)c(F)c(F)c(F)c3F)c(F)c21 [Compound 154, methyl 2-(2,2,5,7-tetrafluoro-3-oxo-6-(perfluorophenyl)-2,3-dihydro-4H-benzo[b][1,4]oxazin-4-yl)acetate] | < 100
COC(=O)Cc1ccc(CN2C(=O)C(F)(F)Oc3cc(F)c(-c4c(F)c(F)c(F)c(F)c4F)cc32)cc1 [Compound 156, methyl 2-(4-((2,2,7-trifluoro-3-oxo-6-(perfluorophenyl)-2,3-dihydro-4H-benzo[b][1,4]oxazin-4-yl)methyl)phenyl)acetate] | < 1000
O=C(O)Cc1ccc(CN2C(=O)C(F)(F)Oc3cc(F)c(-c4c(F)c(F)c(F)c(F)c4F)cc32)cc1 [Compound 157, 2-(4-((2,2,7-trifluoro-3-oxo-6-(perfluorophenyl)-2,3-dihydro-4H-benzo[b][1,4]oxazin-4-yl)methyl)phenyl)acetic acid] | < 100
COC(=O)CN1C(=O)C(F)(F)Oc2cc(F)c(-c3cc(F)c(F)c(F)c3F)cc21 [Compound 158, methyl 2-(2,2,7-trifluoro-3-oxo-6-(2,3,4,5-tetrafluorophenyl)-2,3-dihydro-4H-benzo[b][1,4]oxazin-4-yl)acetate] | < 1000
COC(=O)CN1C(=O)C(F)(F)Oc2cc(Cl)c(-c3c(F)c(F)c(F)c(F)c3F)cc21 [Compound 160, methyl 2-(7-chloro-2,2-difluoro-3-oxo-6-(perfluorophenyl)-2,3-dihydro-4H-benzo[b][1,4]oxazin-4-yl)acetate] | < 1000
COC(=O)CCN(C)C(=O)CN1C(=O)C(F)(F)Oc2cc(F)c(-c3c(F)cc(F)c(F)c3F)cc21 [Compound 162, methyl 3-(N-methyl-2-(2,2,7-trifluoro-3-oxo-6-(2,3,4,6-tetrafluorophenyl)-2,3-dihydro-4H-benzo[b][1,4]oxazin-4-yl)acetamido)propanoate] | < 100
CN(CCC(=O)O)C(=O)CN1C(=O)C(F)(F)Oc2cc(F)c(-c3c(F)cc(F)c(F)c3F)cc21 [Compound 163, 3-(N-methyl-2-(2,2,7-trifluoro-3-oxo-6-(2,3,4,6-tetrafluorophenyl)-2,3-dihydro-4H-benzo[b][1,4]oxazin-4-yl)acetamido)propanoic acid] | < 1000
